Reference: the supplement of paper PMC9254222
What follows is the remainder of the data, with few or none of the highest values.

Test system: HEK293T (UBE3A T485A transfected, BAR Wnt reporter)
Experiment: Renilla luciferase signal (cell health) relative to plate median (fold (linear ratio)); higher = higher Renilla signal
Conditions: 24 h
Method in brief: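 Chemicals were robotically dosed at 0.01–100 uM for 24 h onto HEK293T cells, starting four hours after transfection with a BAR firefly luciferase Wnt reporter, TK-Renilla and an expression plasmid. The cells had been plated at 4500 cells/well in DMEM with 10% FBS at 37°C and 5% CO2. Following a Dual-Glo luciferase readout, the firefly/Renilla ratio served as the Wnt activity measure and raw Renilla as the cell health measure, both median-centred on each plate. Each value is the mean of four biological replicates.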

`O=C(c1ccccc1)c1ccccc1` [Benzophenone] was tested, and the Renilla luciferase signal (concentration: 0.1 uM) was 0.9, the Renilla luciferase signal (concentration: 1 uM) was 0.806 and the Renilla luciferase signal (concentration: 10 uM) was 0.912. For the same molecule, the Renilla luciferase signal (concentration: 100 uM) was 1.01.
